# Source: PubChem BioAssay AID1487 (National Center for Advancing Translational Sciences (NCATS), 2009)
# This is one part of the list. Further columns of the screen follow, without active or inactive calls. Compounds called inactive in the main read-out are mostly missing here. Words in brackets tell the shape of the fitted curve; partial curves, single points and poor fits give uncertain potencies.
# Assay: qHTS Assay for Modulators of Lamin A Splicing
# Details: HeLa LMNA splicing GFP/RFP minigene ratio, 48 h
# Method in brief: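 S3 HeLa stable clones carrying a lamin A-EGFP splicing minigene plus DsRed2 were seeded at 600 cells/well in Opti-MEM with 2% FBS, pin-dosed and incubated 48 h at 37°C. Acumen cytometry (488 nm) gave the GFP/RFP total-intensity ratio.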
# [1] = measured here: RFP viability control channel
# [2] = measured here: GFP splicing reporter channel
Compound,AC50 [1],AC50 [2]
CC1CCN(c2nc(/C=C/c3ccccc3)nc3ccccc23)CC1,"14.1 µM [rising, partial curve]",–
COc1ccc(CC(=O)NC2CC(=O)N(c3ccc4c(c3)OCCO4)C2)cc1 (stereo not drawn),"0.00398 µM [falling, full curve, poor fit]","0.224 µM [falling, full curve, poor fit]"
Cc1nn(C)c(C)c1S(=O)(=O)N(CC(=O)Nc1ccc2c(c1)OCO2)c1ccc(C(C)C)cc1,"11.2 µM [rising, partial curve, poor fit]",–
C=CCNC(=S)N/N=C/c1ccc(C(C)(C)C)cc1,"35.5 µM [falling, single point]",–
Cc1cccc(CSc2ccc3nnc(-c4cccnc4)n3n2)c1,"5.01 µM [rising, partial curve]",–
CCOc1cc(N(CC)CC)ccc1/C=C(/C#N)c1nc2ccccc2[nH]1,"7.94 µM [falling, single point]","0.0251 µM [rising, single point]"
CCOC(=O)c1c(C)oc2nc(C)nc(NCc3ccc(C)cc3)c12,–,"39.8 µM [falling, partial curve, poor fit]"
CCOc1ccc(Br)cc1S(=O)(=O)Nc1ccc(Cl)c(S(=O)(=O)N(C)C)c1,"0.00355 µM [rising, full curve, poor fit]",–
CC1CN(CCc2ccccc2)c2nc3c(c(=O)[nH]c(=O)n3C)n2C1 (stereo not drawn),"0.0282 µM [rising, full curve, poor fit]","0.112 µM [rising, full curve, poor fit]"
COc1ccc(NC(=O)C2CCN(c3cc(-c4ccccc4)nc4ncnn34)CC2)cc1OC,"10 µM [rising, partial curve, poor fit]","5.62 µM [rising, partial curve, poor fit]"
C=CCn1c(O)c(N=NC(=S)Nc2ccccc2F)c2ccccc21,"35.5 µM [falling, single point]",–
O=C(NCCc1ccccc1F)C1CCCN1S(=O)(=O)c1ccc2ccccc2c1 (stereo not drawn),"12.6 µM [rising, partial curve, poor fit]",–
CCOC(=O)c1cnc2ccccc2c1Nc1ccc2c(c1)OCCO2,"15.8 µM [rising, single point]",–
Cc1cc(C)nc(Sc2c(C)nn(-c3ccccc3)c2C)n1,"35.5 µM [rising, single point]",–
COc1ccc(OC(=O)c2ccncc2)cc1,–,"10 µM [falling, single point]"
O=C(Nc1ccc(N2CCC(N3CCCCC3)CC2)c(C(=O)O)c1)c1ccccc1,–,"0.282 µM [rising, full curve, poor fit]"
CC1CCN(C(=O)c2cnn(-c3ccc(Cl)cc3)c2C2CCN(C(=O)OC(C)(C)C)CC2)CC1,"0.282 µM [falling, full curve, poor fit]",–
Cc1nnsc1C(=O)N/N=C/c1ccccc1,–,"1.41 µM [falling, full curve, poor fit]"
CCOC(=O)c1[nH]cnc1C(=O)Nc1ccccc1C,"2.82 µM [rising, full curve, poor fit]","0.501 µM [rising, full curve, poor fit]"

Compound,AC50 [1],AC50 [2]
O=C(CC(SCCO)c1ccc2c(c1)OCO2)c1cccs1 (stereo not drawn),"17.8 µM [rising, single point]",–
Clc1ccc(CO/N=C2\CCCc3nonc32)c(Cl)c1,"35.5 µM [rising, single point]",–
CCCOc1ccc(NC(=O)CC2C(=O)N(C)C(=S)N2Cc2cccs2)cc1 (stereo not drawn),"35.5 µM [rising, single point]",–
Cc1cccc(-n2ccnc2SCC(=O)Nc2nccs2)c1,"12.6 µM [rising, partial curve, poor fit]","12.6 µM [rising, single point]"
COc1ccc(CNC(=O)CN(c2ccccc2OC)S(=O)(=O)c2ccc(C)cc2)cc1,–,"22.4 µM [falling, single point]"
O=c1ccnc(SCCC(F)=C(F)F)[nH]1,–,"14.1 µM [rising, partial curve, poor fit]"
O=S(=O)(NCc1ccccc1)c1ccc(-c2cnc(C3CC3)o2)cc1,"8.91 µM [rising, single point]",–
CC(=O)Nc1cccc(NC(=O)c2c(-c3c(Cl)cccc3Cl)noc2C)c1,"31.6 µM [rising, single point]",–
Cc1nc2cc(NS(=O)(=O)c3c(C)c(C)cc(C)c3C)ccc2s1,"2.82 µM [rising, full curve]",–
CCOc1ccc2[nH]c(=O)c(CN(Cc3ccc(F)cc3)C(=O)c3ccco3)cc2c1,"35.5 µM [rising, single point]","35.5 µM [rising, single point]"
CN(C)S(=O)(=O)c1ccc(NC(=O)CNc2cc(S(=O)(=O)N3CCCC3)ccc2OCC(F)(F)F)cc1,"17.8 µM [rising, single point]","11.2 µM [rising, single point]"
O=C(CSc1nnc(-c2ccc(NS(=O)(=O)c3ccccc3)cc2)o1)NCC1CCCO1 (stereo not drawn),"14.1 µM [rising, single point]",–
CN1CC(=O)N(CC(=O)N2N=C(c3ccc(Cl)cc3)CC2c2ccco2)C1=O (stereo not drawn),–,"0.00316 µM [rising, full curve, poor fit]"
CCc1ccc(/C=C/C(=O)c2ccc(S(=O)(=O)N(C)C)cc2)cc1,"35.5 µM [falling, single point]","35.5 µM [falling, single point]"
Cc1cccc(C)c1OCC(=O)N/N=C/c1ccc2c(c1)OCO2,"7.08 µM [falling, full curve, poor fit]","7.08 µM [falling, full curve]"
O=c1c2ccccc2oc2nc3n(c(=O)c12)CCCS3,"10 µM [rising, single point]",–
Cc1ccc(NC(=O)CSc2nc3nccnc3c(=O)n2CCc2c[nH]c3ccccc23)cc1,"1.78 µM [falling, partial curve]","2.24 µM [falling, partial curve, poor fit]"
Cc1ccc(S(=O)(=O)N2CCN(C(C)C(=O)Nc3ccccc3-c3ccccc3)CC2)cc1 (stereo not drawn),"28.2 µM [rising, partial curve]",–
O=[N+]([O-])c1cc(C(F)(F)F)ccc1N1CCN(S(=O)(=O)c2ccc3c(c2)CCCC3)CC1,"3.16 µM [rising, partial curve]","2.82 µM [rising, single point]"

Compound,AC50 [1],AC50 [2]
O=C(NC(=S)Nc1cccc(CO)c1)c1ccc(-c2ccccc2)cc1,"35.5 µM [rising, single point]","14.1 µM [rising, single point]"
COc1cc(CNc2ccc3[nH]c(=O)[nH]c3c2)ccc1OCc1ccccc1F,–,"5.01 µM [falling, partial curve, poor fit]"
COC(=O)c1sccc1NC(=O)CSc1nnnn1-c1ccccc1C,"25.1 µM [rising, single point]",–
O=C(N/N=C/c1ccccc1O)C1SCCCS1,–,"15.8 µM [falling, single point]"
COc1ccccc1Oc1c(C)oc2c(CN3CCN(CCO)CC3)c(O)ccc2c1=O,"22.4 µM [rising, single point]",–
CC(=O)Nc1ccc(Oc2cc(N)cc([N+](=O)[O-])c2)cc1,"35.5 µM [falling, single point]",–
CC1CC1C(=O)Nc1nc(-c2ccccc2)cs1 (stereo not drawn),"14.1 µM [rising, single point]","15.8 µM [rising, single point]"
CC(=O)NC(C)c1nc2ccccc2n1CC(=O)NC(C)CCc1ccccc1 (stereo not drawn),"35.5 µM [rising, partial curve, poor fit]",–
O=C(CCNS(=O)(=O)c1ccc2c(c1)CCN2C(=O)C1CC1)N1CCN(c2ccccc2F)CC1,"0.02 µM [falling, full curve, poor fit]","0.0224 µM [falling, full curve, poor fit]"
O=C1C=C(NC2=CC3OC(c4ccccc4)OCC3OC2=O)CCC1 (stereo not drawn),"11.2 µM [rising, partial curve]",–
O=c1[nH]c(/C=C/c2ccc(OC(F)F)cc2)nc2c1cnn2-c1ccccc1,"4.47 µM [falling, partial curve, poor fit]",–
Cc1onc(-c2c(F)cccc2Cl)c1C(=O)Nc1sc2c(c1C#N)CCC(C(C)(C)C)C2 (stereo not drawn),"14.1 µM [rising, single point]",–
COc1ccccc1N=CC1=C(O)CC(c2ccccc2)CC1=O (stereo not drawn),"11.2 µM [rising, single point]",–
C=CCn1c(-c2ccc3[nH]c(C)c(C)c3c2)n[nH]c1=S,"31.6 µM [rising, single point]",–
Cc1ccc(S(=O)(=O)Nc2ccc3c(c2)CCC3)cc1,"12.6 µM [rising, partial curve]","7.08 µM [rising, partial curve, poor fit]"
COc1ccc(C(=O)CSc2nnc(Cc3ccccc3)o2)cc1,–,"35.5 µM [rising, single point]"
COc1ccc(NC(=O)/C(C#N)=C/c2cc(C)n(-c3ccc(N4CCOCC4)c([N+](=O)[O-])c3)c2C)cc1,"12.6 µM [rising, partial curve]",–
CC1=CC(C)C(C(=O)O)C(C(=O)O)C1 (stereo not drawn),"0.631 µM [rising, partial curve]",–
COC(=O)c1nnn(-c2nonc2N)c1CSc1nc2ccccc2s1,"22.4 µM [rising, single point]",–

# Looked up one by one from above (two):
Compound,AC50 [1],AC50 [2]
Cc1onc(-c2c(F)cccc2Cl)c1C(=O)Nc1sc2c(c1C#N)CCC(C(C)(C)C)C2 (stereo not drawn),"14.1 µM [rising, single point]",–
COc1ccccc1N=CC1=C(O)CC(c2ccccc2)CC1=O (stereo not drawn),"11.2 µM [rising, single point]",–
